Data: patent US20220363623A1, “IMAGING AND THERAPEUTIC COMPOSITIONS” (priority 2019, published 2022)
Not every detail of the peptide structures is certain; ends, links or a residue may be inferred.

Test system: LNCap cells
Assay: Cell binding and internalization studies in LNCap cells
Type: cell-based, human
Conditions: for Cell Uptake % AR/mg protein (60 min) Surface bound / Cell Uptake % AR/mg protein (60 min) internalized: 89Zr tracers, LNCap cells, 37° C.
Experimental: Cell binding and internalization studies. LNCap cells (150,000/well) were plated in RPMI 1640 medium containing 10% FBS into wells of a 24 well plate pre-coated with 0.05% poly-L-lysine and incubated overnight at 37° C. and 5% CO2. The following day cells were washed twice with PBS and incubated for 1 hour at 37° C. in 1 mL per well internalisation buffer (MEM, 1% FBS). The buffer was then replaced with 1 ml per well of a warmed solution containing 0.5 μCi ^89Zr-DFOsq-PSMA tracers in internalisation buffer. Cells were incubated in triplicate for 5, 15, 30 or 60 min at 37° C. and 5% CO2. At each time point, cells were washed twice with ice-cold PBS and the washes collected for counting (unbound fraction). Cells were then incubated twice for 10 min in saline containing 10 μM PMPA and each wash collected for counting (surface bound fraction). The cells were then solubilised in 1 M NaOH (internalised fraction). Total protein content was determined in this fraction using a BCA protein assay kit (Pierce). A Perkin Elmer 2480 Wizard automatic gamma counter was then used to measure Zr-89 radioactivity in unbound, surface bound and internalised fractions. Surface bound and internalised fractions were expressed as percentage of total added radioactivity per mg of protein. Non-specific membrane binding and internalisation was determined by incubating cells with the ^89Zr-DFOSq-PSMA tracers in the presence of excess (10 μM) PMPA. ^89Zr-DFOSq-PSMA tracers uptake at 60 min was also determined in DU145 cells (seeded at 125,000 cells/well), a PSMA negative cell line. The raw data was analysed using GraphPad Prism 7.

Compound	Cell Uptake % AR/mg protein (60 min) Surface bound [% AR/mg protein]	Cell Uptake % AR/mg protein (60 min) internalized [% AR/mg protein]	Binding and internalisation into LNCap cells in vitro (in words)
CC(=O)N(O)CCCCCNC(=O)CCC(=O)N(O)CCCCCNC(=O)CCC(=O)N(O)CCCCCNc1c(NCc2ccc(C(=O)NCCCCC(NC(=O)NC(CCC(=O)O)C(=O)O)C(=O)O)cc2)c(=O)c1=O (single isomer, unassigned) [^89Zr(1), metal not drawn]	2.8 ± 0.73	7.1 ± 0.94	–
CC(=O)N(O)CCCCCNC(=O)CCC(=O)N(O)CCCCCNC(=O)CCC(=O)N(O)CCCCCNc1c(NCCN(CCNC(=O)CCCC(=O)NCc2ccc(C(=O)NCCCCC(NC(=O)NC(CCC(=O)O)C(=O)O)C(=O)O)cc2)CCNC(=O)CCCC(=O)NCc2ccc(C(=O)NCCCCC(NC(=O)NC(CCC(=O)O)C(=O)O)C(=O)O)cc2)c(=O)c1=O (single isomer, unassigned) [^89Zr(4), metal not drawn]	5.8 ± 0.47	39.1 ± 3.2	specific binding and rapid internalisation
